Taken from: PubChem BioAssay AID602196 (INSERM, 2012)
In all, the deposit lists about 23,000 reagents; this is a part drawn at random. 455 of them (2%) were called active. 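Active includes both protection and sensitisation; some change values fall well beyond the stated -50 to +50 range.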 Further read-outs or replicates are left out here. The record does not give: the amount of reagent.

Screen: 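Modifiers of cisplatin sensitivity in A549 cells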
Cell system: human A549 lung cancer cells
Reagent: siRNA pair against human genes
Duration: 48 h transfection before cisplatin; time from cisplatin to read-out not stated
Conditions: cisplatin at a dose killing half of control-siRNA cells; exact dose and duration not given
Measurement: 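Cisplatin cell death as a shift from the 50% death seen with control siRNA; siRNAs toxic or growth-blocking alone scored 0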
Direction: two-siRNA summed score (-2 to +2): higher = both siRNAs protect from cisplatin killing; -2 means both sensitise
Hit rule: 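siRNAs harmful alone (LDH or WST-1) get 0; others get +1 for less and -1 for more cisplatin killing; genes are active when the two siRNAs give the same sign, summing to ±2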
Meaning of the calls: active = both siRNAs shift cisplatin killing the same way; inactive = no consistent shift, or siRNA harmful alone

gene symbol | PubChem SID | two-siRNA summed score (-2 to +2) | Outcome
KRI1 (GeneID 65095) | SID131506851 | 0 | inactive
MOGS (GeneID 7841) | SID131501366 | -1 | inactive
PLGLA (GeneID 285189) | SID131511559 | 0 | inactive
GDPD1 (GeneID 284161) | SID131516795 | 0 | inactive
FABP2 (GeneID 2169) | SID131510378 | 0 | inactive
LINC02874 (GeneID 283403) | SID131518401 | 0 | inactive
PPA1 (GeneID 5464) | SID131506239 | 0 | inactive
HIPK4 (GeneID 147746) | SID131520280 | 1 | inactive
MTMR6 (GeneID 9107) | SID131507446 | 0 | inactive
KLRD1 (GeneID 3824) | SID131510892 | 0 | inactive
LOC440322 | SID131517811 | 0 | inactive
USP43 (GeneID 124739) | SID131501916 | -1 | inactive
HSPA4L (GeneID 22824) | SID131519504 | 1 | inactive
VPS26C (GeneID 10311) | SID131503579 | 0 | inactive
OR1D2 (GeneID 4991) | SID131501367 | -1 | inactive
LOC389124 | SID131523002 | 2 | active
LOC441370 | SID131514584 | 0 | inactive
OR8U1 (GeneID 219417) | SID131504994 | 0 | inactive
SLC18B1 (GeneID 116843) | SID131509222 | 0 | inactive
DOCK7 (GeneID 85440) | SID131505139 | 0 | inactive
ZNF541 (GeneID 84215) | SID131512791 | 0 | inactive
CHM (GeneID 1121) | SID131503960 | 0 | inactive
FBN3 (GeneID 84467) | SID131504144 | 0 | inactive
FOXL1 (GeneID 2300) | SID131518838 | 0 | inactive
LOC132391 | SID131520715 | 1 | inactive
EPHX2 (GeneID 2053) | SID131501493 | -1 | inactive
SH2B1 (GeneID 25970) | SID131512828 | 0 | inactive
DNMBP (GeneID 23268) | SID131518133 | 0 | inactive
INS (GeneID 3630) | SID131502132 | -1 | inactive
ACSL4 (GeneID 2182) | SID131508905 | 0 | inactive
DTYMK (GeneID 1841) | SID131517978 | 0 | inactive
HMX3 (GeneID 340784) | SID131521780 | 1 | inactive
EMX1 (GeneID 2016) | SID131513251 | 0 | inactive
KIF13B (GeneID 23303) | SID131502911 | 0 | inactive
SLC4A3 (GeneID 6508) | SID131513820 | 0 | inactive
MOBP (GeneID 4336) | SID131515459 | 0 | inactive
PABIR1 (GeneID 116224) | SID131512471 | 0 | inactive
FZD3 (GeneID 7976) | SID131504947 | 0 | inactive
ZNF213 (GeneID 7760) | SID131520935 | 1 | inactive
